From publication PMC6648895
Results are given in words; binding and its absence hold for the method and conditions named. In cells and extracts the contact can be indirect. These calls come from enrichment with a bait or labelling near it, and not all partners need be listed. For some of these results: No binding means not detected with the bait.

Chains of the proteins cited; added tags and fusions are not shown.
UniProt P39939: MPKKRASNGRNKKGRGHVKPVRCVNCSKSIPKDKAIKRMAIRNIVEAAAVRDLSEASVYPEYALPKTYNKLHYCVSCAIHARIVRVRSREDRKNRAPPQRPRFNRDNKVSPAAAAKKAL

How the values were obtained:
Assay in all cases: affinity purification with mass spectrometry; C-terminally TAP-tagged 40S r-protein as bait; tandem-affinity purification (IgG Sepharose, TEV elution, Calmodulin Sepharose) from yeast lysate in 50 mM Tris-HCl pH 7.5, 100 mM NaCl, 1.5 mM MgCl2, 0.1% NP-40, 1 mM DTT; label-free semi-quantitative LC-MS/MS, intensities plotted against the mean of all purifications
[1] = biological target: Rps14b-TAP (S. cerevisiae) (UniProt P39516)
[2] = biological target: Rps26b-TAP (S. cerevisiae) (UniProt P39939)
[3] = biological target: T1, Rps2-TAP (S. cerevisiae) (UniProt P25443)
T1 sequence: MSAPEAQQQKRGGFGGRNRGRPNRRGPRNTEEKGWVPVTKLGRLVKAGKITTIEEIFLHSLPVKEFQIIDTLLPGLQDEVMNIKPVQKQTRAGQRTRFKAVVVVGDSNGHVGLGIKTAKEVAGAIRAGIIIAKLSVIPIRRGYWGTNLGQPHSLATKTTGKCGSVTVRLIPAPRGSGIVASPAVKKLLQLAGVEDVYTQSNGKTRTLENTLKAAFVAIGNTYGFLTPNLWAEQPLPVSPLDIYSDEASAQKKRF

B1: Fap7 (protein, UniProt Q12055 1-197)
chain: MEARRYGPNIIVTGTPGCGKSSTCEFLKNKLKDYKYYNISDFAKDNDCFEGYDEGRKSHIVDEDKLLDMLEPLLRQGNSIVDWHVNDVFPERLIDLVVVLRCDNSNLYSRLHARGYHDSKIEENLDAEIMGVVKQDAVESYEPHIVVELQSDTKEDMVSNVSRIVAWEKMWLEQHPDGVTNEYQGPRSDDEDDEDSE
binding [1]: binds
binding [2]: no binding

B2: Tsr4 (endogenous) (protein, UniProt P25040 1-408)
chain: MSKIEELPPSDTDDHSYSSKPGDVFLAFVDAPVKETDDILVEDSFIGGEPKWLHPDSEPPAELLKCGACKSADNMKLLLQAFSPLDDEQMSAIQQRLGINNMSYINPQDDRVLYVFLCTECQRKGNSVRCIRGVKKNKNVDSLSEKMASTSLEKDFQINPFDLSNNSDSKCNAFSSNPFGGANANPFGADSINSNISQSKDEGKKKESATVSAKTARKLHDLQKDKEYDGNKCFKSCLLYVEEETFKNKKPAHLQLPKNLKIDKEALDLTGDEDLEKDPIKLDPRTEKLSKFLDDDTFQKFQEVVGYNPLQVLRYDLGGKPLLYAETKVDILSTVPRPGYNPSSQRIFEMQLMPKMIFDLEEVVSVDNGMEWGTILVFTDVENYMPEFDEHGVGYVEECVKVQWESRT
binding [3]: binds

B3: Tsr2 (protein, UniProt Q06672 1-205)
chain: MSTQYIDETAFVQAEQGKTNLMFSDEKQQARFELGVSMVIYKWDALDVAVENSWGGPDSAEKRDWITGIVVDLFKNEKVVDAALIEETLLYAMIDEFETNVEDDSALPIAVEVINIYNDCFNLNYNKVEKLYLEWQEKQRTKKSKRVVHIEGDDDEDDEDVEDYDDEDEDEEMDEVVPDLVSSKPEPIVDEDGFELVQPKGRRKH
binding [2]: no binding
